The campaign covered roughly 52,000 sequences. About 210 (0.4%) were called active.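 How the source made its calls: active means gene whose silencing raises cell survival under the drug, median off-target-corrected z-score across its silencing RNAs 2 or more; inactive means the rest.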 This is one part of the list.
Assay: Resistance to Poly (ADP-Ribose) Polymerase inhibitor: Gene Identification via Genome-wide siRNA Screen
Conditions: mouse BRCA2 R2336H ES cells, olaparib, CellTiter-Glo viability; hits give high values
Summary of the method: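 Genome-wide siRNA screen (3 siRNAs/gene, 20 nM) in mouse ES cells carrying hypomorphic BRCA2 R2336H; olaparib 500 nM added 48 h post-transfection, CellTiter-Glo viability 72 h later. Normalized to plate-median negative control; MAD z-scores, gene median, seed-adjusted.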

Sequence | z-score
CUUGUCAAGUGAUGAAAUGTT against Xlr | inactive: 0.438
CCUAAAAGGAUCUUUCAUGTT against 9030616D13Rik | inactive: 1.47
GCCUGAUGCCUGCAUAAGUTT against Gla | inactive: 0.832
GCUUACUGACUUUGGAUGCTT against Mrgpra4 | inactive: -1.11
GCUAGUUUGGACCAUACGGTT against Ehhadh | inactive: 1.28
GGAUCAAGUCUACAGCUAGTT against Olfr225 | inactive: 0.319
GGAGACAUCCUAAAAUUUGTT against Sacy | inactive: 0.0222
GGUUGUCUAUGAUUCAGGGTT against Creb3l4 | inactive: 1.11
GGAACUAAUGACCAUUUUCTT against Lix1 | inactive: 0.741
GGUGUUGAGUUCAAGUCUATT against E330009J07Rik | inactive: -1.2
CCUGGCUAAUGACUAGCUCTT against D730046L02Rik | inactive: -0.501
GCGAUGGUAUGUUGAAGGATT against 4930432E11Rik | inactive: -0.846
GCAAAAGUAUUUUGUGUCCTT against Aamp | inactive: -0.646
GGGCACCAGUGGUUAUUAATT against D4st1 | inactive: 0.629
GCAGAAGCCUGUGGGAUCUTT against 1700065I17Rik | inactive: -0.638
GCAGCUUUUUGAGGUGUUATT against A530087D17Rik | inactive: 0.108
GGUCAAAGGACAAAGAUAATT against Apg7l | inactive: 1.21
GGAAGUGGAAGUUCUGAAGTT against Tgfb1i4 | inactive: -0.753
GGACAUUUUAAUGUGCUCATT against BC036333 | inactive: -1
CGAUCAUCAUUGGUUGCGGTT against 1700007K09Rik | inactive: -0.166
CCUGGAAGGAUUAUUGCACTT against Bteb1 | inactive: -0.652
GGCUCGUUUAAACAACAUATT against 2310036D22Rik | inactive: -0.207
GCAACGGAGACUUCAGUAATT against 7030401O21Rik | inactive: -1.67
CCAGCAAAUAUCCUAGUAATT against 2700084L06Rik | inactive: -1.09
GCUUUUCAUGGACACAUUCTT against 2810405F18Rik | inactive: -1.23
GGAAACAUCUUGUUGCUUUTT against Chkb | inactive: 1.05

Part of the list above, tab-delimited.
Sequence	z-score
GGCUCGUUUAAACAACAUATT against 2310036D22Rik	inactive: -0.207
GCAACGGAGACUUCAGUAATT against 7030401O21Rik	inactive: -1.67
CCAGCAAAUAUCCUAGUAATT against 2700084L06Rik	inactive: -1.09
GCUUUUCAUGGACACAUUCTT against 2810405F18Rik	inactive: -1.23
GGAAACAUCUUGUUGCUUUTT against Chkb	inactive: 1.05

Remaining list, next part.

Sequence | z-score
CCUGGUGCUUCGUAAUUACTT against Cyp11a1 | inactive: 1.22
GGGAUUCAGAGAUCAUGCATT against Serf1 | inactive: 0.421
GGACUUUCUGGACUCCCGATT against Wnt10a | inactive: 0.999
GCUAUGAUCAUAGUACGAUTT against Adam25 | inactive: 0.238
GGUCUUCUCAAUAGCGAGGTT against Plce1 | inactive: -0.644
GGAGGUUACAAUCCAUGAGTT against Anapc1 | inactive: -2.36
GGACUUCACAAUCUCUUUCTT against Hck | inactive: 0.594
CCAGAUGACAAUGAGUCAGTT against Ss18 | inactive: 0.355
GGAAGUGCCCAUGAAUCCUTT against Irf6 | inactive: 0.826
GGGUGUGCAUCUUGUUUUCTT against Olfr1312 | inactive: 0.277
GGAAUUAAAGAGGAACUCCTT against Adamts20 | inactive: 0.87
GGCCUUUACAUGUCCCAGCTT against BC002059 | inactive: 0.867
GGGACAAAGCUUGUGAUCGTT against Edg7 | inactive: -1.76
GGAGAAAUGGGUAAAAACUTT against BC034902 | inactive: 0.104
GCUAACUGCCUUGGGAAGATT against Lyl1 | inactive: -0.449
GGUGUGCUGAAAUUUCAAATT against E430004N04Rik | inactive: 0.884
GGCUGACACAAGAUGGCUGTT against Ebpl | inactive: -1.42
GGGAAGCUGACAAUGGAACTT against Nmb | inactive: 0.201
GGUGUCCAUGAAAGAGCUCTT against Dlk1 | inactive: 0.773
GGAGCUCAUAGACCAGCUUTT against Apba2bp | inactive: -2.02
GCUCCCAGAUGUGAAACAATT against Taf7l | inactive: -1.19
GGAUUACGGUCACUGCCAUTT against Gabrr2 | inactive: 1.39
GGGAUUGAAAAGGUUAACCTT against 4930563D23Rik | inactive: 0.828
GGAGAGCUGUGUUUGUAACTT against Mllt1 | inactive: 1.77
GGCUUAUGAUUUCUGAAAATT against Malt1 | inactive: 0.345
GGAACUGGAACACAUGGUUTT against Hars2 | inactive: -0.944

Sequence | z-score
GGCGGUUUCAAAAGCUUCCTT against Dusp2 | inactive: -0.62
GGGAUGACUCGAGAUGAUGTT against Hs1bp1 | inactive: -0.306
GGGAAAUGAACCUCUCUGATT against 3110049J23Rik | inactive: -1.88
CCGAGAGGUUUAAGGUCUCTT against Nsg1 | inactive: -0.861
GCCUGAUGGACCAUGUUUATT against C80638 | inactive: -0.642
GGAAGUGUGCCUAUUUGUGTT against Nte | inactive: -0.364
GCCCAGACUACCAUGCUUATT against LOC433481 | inactive: 0.614
GCAAUUACCAGUAUGCUACTT against Tbx19 | inactive: 0.857
GGUUCUUGGUUUACAUAAGTT against Slc39a12 | inactive: -2.03
GGUAGAUAACCUGAUUUAUTT against Slc7a6 | inactive: 0.444
GGAAUUACUGGCCUGGGUATT against Nox3 | inactive: -0.756
GCAACAGUUGGUCUAAAAUTT against Psma1 | inactive: 1.51
GGACAACAUACGAUAUUCATT against 1700052H20Rik | inactive: -1.46
GGAGCUGUCUAAUCAUAAUTT against Clasp2 | inactive: -0.614
GGAGUUACGUAGAACUACCTT against Adam25 | inactive: 0.0384
GGAGUUGAAAGGAGUGAGCTT against Igsf4c | inactive: 0.353
GGUAGCAGAGCAGCUUAUUTT against Vmd2l1 | inactive: -0.75
UUAUUCUCACUGGUUUGUATT against Olfr746 | inactive: 0.621
CCAGUUUGAUGGUAGACAATT against T2bp | inactive: 0.665
GCUCGAUCCCUCUUUCAUCTT against Mpst | inactive: -0.607
CCCUAGAAUUGCUACAGUCTT against Tcea1 | inactive: 0.489
GGCUCAGCUAGAGGUUUCUTT against Ugt1a13 | inactive: -1.23
GGGAGUAUUACCUCCUUCATT against Igbp1b | inactive: -1.37
GGUACUUUACACUGAACAATT against Serpinb13 | inactive: 0.739
GCUAAAAGGCUACGGGAGUTT against Bhlhb4 | inactive: -1.15
GGAAAAUCCAGAGGUACGUTT against Kcnj6 | inactive: 2.35

Sequence | z-score
GGGUGGAGUAUUUUUCUUGTT against Ube2d2 | inactive: -0.345
GCUUGUCUACUUCCUAGAUTT against Rnpep | inactive: 0.623
CUCCUUGUCUACCUGAAUATT against V1rh6 | inactive: 0.542
GGAAAGUGCCCUCCACACUTT against Lgi4 | inactive: -0.415
GGACUAUUAGAUUCCAGCATT against Wnt6 | inactive: -1.83
GGAAAAGGAGAUAUCCAGCTT against Bag5 | inactive: -0.0381
CGAGUCAAAAUCGAAUGAUTT against BC020002 | inactive: -0.955
GCAGUUCGUAGUAUUUGAATT against B4galt1 | inactive: -0.331
GCUACUCUACUGAACAGAATT against Olfr472 | inactive: 1.71
GGGACUUGAUCUCCUGAGUTT against 1110033F04Rik | inactive: 0.344
GGCUUAAUUGCUAGCCAAGTT against Slc7a13 | inactive: -0.212
CCUUCUGUUAGCCAAUAUATT against Tnmd | inactive: -1.64
GGGCUUCUUUGACCUCAUCTT against Kdelr1 | inactive: 0.491
GGUGUUGGUUGAGAACUUCTT against Tbxas1 | inactive: -0.727
GGUUCUCAGAGCUUGUAGATT against 6720455I24Rik | inactive: 0.819
CCAGAUCAGCAAUAUCAAATT against Lasp1 | inactive: 1.36
GGCUACGCAAACAGUUUGGTT against Actn1 | inactive: 0.793
GGUGACAACUGACCUCAACTT against Oog4 | inactive: 0.0857
GGACAUUCUCAAAUCUUGATT against DXImx39e | inactive: -0.706
GGUGUUCCAUAUUCUGGACTT against Pvalb | inactive: 0.717
GGGCUCCUGGUUUAGUAAUTT against Zfp59 | inactive: 0.241
GGAUGGCUACCGAAAAAAUTT against Eif3s8 | inactive: -2.11
GGAUCUCCUAAGUGUUCCCTT against AI415282 | inactive: 0.269
CCACUUUUAGCUAGAAGGATT against Gdf2 | inactive: -0.0563
GGUCCUGAAGAACCUGUACTT against Myrip | inactive: -0.582
GGCUUUCUCACAUAAGAGCTT against Zfp297 | inactive: 0.779

Source: PubChem BioAssay AID1347423 (Functional Genomics Laboratory (NCATS/FGL), 2020)
